The test has as its target cofilin (mouse (endogenous in retina)). As to the kind of experiment: co-IP.

These are yes or no findings as the source states them, for the method shown. In cells and extracts the contact can be indirect. Binding can be weak; no strength is given.

B1: retinal specific isoform of RPGR (retinitis pigmentosa GTPase regulator) (protein, UniProt Q9R0X5-5 1-1305)
chain: MAESESLVPDTGAVFTFGKTKFAENIPSKFWFKNDIPICLSCGDEHTAIVTGNNKLYMFGSNNWGQLGLGSKAAIIKPTCIKALKPEKVKLAACGRNHTLVSTDTGGVYAAGGNNEGQLGLGDTDDRDTFHQIVFFTPADTIKQLSAGANTSAALTEDGKLFMWGDNSEGQIGLEDKSNVCIPHEVTVGKPISWISCGYYHSAFVTMDGELYTFGEPENGKLGLPNELLMNHRSPQRVLGIPERVIQVACGGGHTVVLTEKVVYAFGLGQFGQLGLGTFLFETSEPKIIERIKDQKICHISCGENHTALMTELGLLYTFGDGRHGKLGLGMENFTNQFFPTLCSNFLRFAVQLIACGGCHMLVFATPRLGTIDEPKFEDVYEPYISTGSFSINDLSPRSSLNRSLSARLRRRERERPPCSASMVGTLPPLEGTSASTSAYFYPSSPPFHLSVNNYPEKSPSESMEPLDSDYFEDKMNKDTETENSSAVDSENFGETNDILNMTHMMTTSSNEKLLDFSPIQKQQNQDTFEKVMESTPCTENEDSYEYEEMSKIKEVTVYKQYLAKGIYMIRPAEILEAFSDEEVGNGLDQVEEPRVFTDGKGLQSKQVGKESDEEIVSEKKTEVMEVADVKKIRESEENSKSDSLFDDLPDKTMNSESEDNKDIAEERRSSEQNMTFDSETELVEEPDSYMECERHSEQDSAEELEQPKLVEYSSEEKDEKDEKDDDEVETENLWYDRNCTEQETENVFRATRFFPKFDLKHDHLSGIPEEQEGPEDSEGNVVVEQVVQAQKENLEFEGDRKEAKAEAPSDVITEKEVSESERESGGEREDRSEGDGDQICEKVSLETEHLQRAQGKQERKKGKDKRARCILDMKEREEDKGWEKGSEGGDKMKRDEGNQEKRKKEMEERDAGDERSEEEEGEEEEPEEGEKEEGGEEEEGTSEDQSREDEGDRQEKEGRREGKGRQEDGREGWKEGEEQEQEEEIEEGEEEEREGEEEGGEEEGEGEGEREEEGEGEEEGEGEEEGEGEEEGEGEEEGEGEEEGEGEEEGEGEEEGEGEEDGEGEEDGEGEEEGEGEEEGEREEDGEGEEDGEGEEEGEGEEEGEGEEEGEGEEEGEGEGEEEGEGEWEGEEEGEGEEEGEGEEEGEGEEEGEGEEEGEGEEEGGEDDEGEELEKKKGDITEEEEEEEEGQEGDEREREEHGSCEDDVEEDKTYDREEGEYKKAIGKVADNESQEDRKQSPKVSKINGSMKYGRHGTYSEKPITNLGKTQPSKMPMESRQLVENGLLGSERFWSDVLPLYLELK
modifications: polyglutamylated (detected using GT335 antibody)
For the molecule B1, the binding entry was “binds”.

(Values after publication doi:10.1101/2022.11.10.516020.)
